# Laboratory results from PubChem BioAssay AID743255 (National Center for Advancing Translational Sciences (NCATS), 2014).
# Protein sequences, listed by entry. Tags and fused reporters are not part of them. Lines headed by an entry give the natural chain unless they say otherwise; changes in a name come on top.
# UniProt O94782: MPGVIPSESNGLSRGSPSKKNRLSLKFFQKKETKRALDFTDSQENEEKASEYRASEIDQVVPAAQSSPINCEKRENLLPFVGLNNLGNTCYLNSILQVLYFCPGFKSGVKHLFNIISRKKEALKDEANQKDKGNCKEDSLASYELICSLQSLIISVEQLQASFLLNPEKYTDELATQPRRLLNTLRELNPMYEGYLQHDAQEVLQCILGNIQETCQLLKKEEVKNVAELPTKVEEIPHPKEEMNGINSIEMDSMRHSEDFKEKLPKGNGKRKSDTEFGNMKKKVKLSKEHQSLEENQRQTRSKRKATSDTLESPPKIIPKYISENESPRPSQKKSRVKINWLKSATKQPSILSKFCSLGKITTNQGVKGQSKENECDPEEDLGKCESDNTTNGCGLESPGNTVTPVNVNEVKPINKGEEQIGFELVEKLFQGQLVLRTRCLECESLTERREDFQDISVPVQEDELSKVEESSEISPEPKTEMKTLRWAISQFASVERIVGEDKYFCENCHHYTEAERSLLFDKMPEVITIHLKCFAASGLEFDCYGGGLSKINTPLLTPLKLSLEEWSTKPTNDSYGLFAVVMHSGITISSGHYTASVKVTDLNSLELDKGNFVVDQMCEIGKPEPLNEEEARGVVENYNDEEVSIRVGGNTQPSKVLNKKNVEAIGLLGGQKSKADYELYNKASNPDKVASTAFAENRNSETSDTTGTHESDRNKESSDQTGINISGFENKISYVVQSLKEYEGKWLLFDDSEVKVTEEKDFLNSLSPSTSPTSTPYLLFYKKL
# The campaign covered roughly 390,000 compounds. About 910 (0.23%) were called active. The shares of active, inactive and inconclusive entries below differ from those in the screen. Calls follow the shape of the dose curve; as a rule, active = well fitted inhibition curve with a large enough effect; inconclusive = small, poorly fitted or top-dose-only effect; inactive = no such curve, though single readings can be large or run the other way. Where the call is inconclusive, the potency comes from a doubtful curve fit.
# Target: Ubiquitin carboxyl-terminal hydrolase 1 (Homo sapiens) (UniProt O94782)
# Assay: Inhibitors of USP1/UAF1: Primary Screen; also: nearly all actives have a fitted effect of over 60% in size
# Conditions: recombinant USP1/UAF1, Ub-Rhodamine cleavage fluorescence; activity change, negative = inhibition: at 57.1 µM (top of the series)
# Procedure, shortened: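 1 nM enzyme complex + cpd, 15 min RT; start with Ub-Rho 150nM final; kinetic fluorescence ex 480/em 540, 6 reads q60 s. Buffer 50mM HEPES pH 7.8, 0.5mM EDTA, 0.1 mg/ml BSA, 1mM TCEP, 0.01% Tween-20.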
# % is scaled to controls: 0 for no effect and ±100 for the full control effect; potency is read from the fitted curve at half-maximal effect.
Compound,Potency,"activity change, negative = inhibition"
COc1ccc2cc(C3=CCCCC3)ncc2c1,"inconclusive: 12.6 µM [inhibitor, partial curve]",–
O=C1C=C(c2cc(C(F)(F)F)cc(C(F)(F)F)c2)C[C@@H](c2ccc(Cl)cc2)C1,"inconclusive: 10 µM [inhibitor, partial curve, poor fit]",–
O=C(Oc1c(CN2CCOCC2)cc(Cl)c2cccnc12)c1ccccc1F,"inconclusive: 12.6 µM [inhibitor, partial curve]",–
CSc1ncc(Cl)c(C(=O)N(Cc2ccc(N(C)C)cc2)Cc2ccco2)n1,"inconclusive: 0.126 µM [inhibitor, full curve]",–
CCCC(=Nc1ccc(N)cc1)C1=C(O)C(C(=O)OC)C(C)(C)CC1=O (centres undefined),"inconclusive: 17.8 µM [inhibitor, partial curve]",–
CC1CCc2c(sc3nc(C(C)(C)C)nc(N4CCN(C(=O)CCl)CC4)c23)C1 (centres undefined),"inconclusive: 28.2 µM [inhibitor, partial curve]",–
Cc1cccc(N=Cc2[nH]c3ccc(Br)c(Cl)c3c2O)c1,"inconclusive: 39.8 µM [inhibitor, partial curve]",–
Nc1ccc2ncccc2c1,"inconclusive: 10 µM [inhibitor, partial curve]",–
O=C(Cn1c(=O)n(-c2ccc(F)c(Cl)c2)c(=O)c2sc3ccccc3c21)NC1CCCC1,"inconclusive: 0.282 µM [inhibitor, full curve]",–
COc1cc(C=NNC(=O)c2ccccc2NS(=O)(=O)c2cccs2)cc(OC)c1O,–,inactive: -24%
C[C@@H]1CCCCO[C@H](CN(C)C(=O)c2ccccc2)[C@@H](C)CN([C@H](C)CO)C(=O)c2cc(NC(=O)c3ccncc3)ccc2O1,"inconclusive: 0.282 µM [inhibitor, full curve]",–
COC(=O)C1=C(C)N(Cc2ccccc2)C(=NCCCOC(C)C)N[C@H]1c1ccccc1,"inconclusive: 0.251 µM [inhibitor, full curve, poor fit]",–
Cc1ccccc1-n1ncc2c1CC(C)(C)CC2NC(=O)c1cn[nH]c1C (centres undefined),–,inactive: -8.35%
CCCCCCSc1cc(-c2nc3cc(C)ccn3c2NC2CCCCC2)ccc1OC,"inconclusive: 44.7 µM [inhibitor, partial curve]",–
COc1ccccc1N1CCN(C(CNC(=O)C(=O)NCCCN(C)C)c2cccnc2)CC1 (centres undefined),–,inactive: -20%
CCCNC(=O)C1CCN(S(=O)(=O)c2ccc3c(c2)CCCN3C(C)=O)CC1,–,inactive: -7.97%
COc1cccc(C(=O)Nc2ccccc2OCc2cc(=O)n3cc(C)ccc3n2)c1,"inconclusive: 0.0316 µM [inhibitor, full curve, poor fit]",–
Cc1ccc2nc(-c3ccc(O)cc3)c(Nc3ccc4c(c3)OCO4)n2c1,"inconclusive: 50.1 µM [inhibitor, partial curve]",–
COCCn1c(C)cc(O)c(C(c2ccccc2)N2CCN(C)CC2)c1=O (centres undefined),"inconclusive: 126 µM [inhibitor, partial curve, poor fit]",–
Cc1cccc(NC(=O)CSc2nc3ccc(NC(=O)c4ccco4)cc3s2)c1,"inconclusive: 10 µM [inhibitor, full curve, poor fit]",–
COC1=CC(=O)C(O)=C(CCCCCCC/C=C/CCCCCCCC2=C(O)C(=O)C=C(OC)C2=O)C1=O,"inconclusive: 31.6 µM [inhibitor, single point]",–
Cc1ccc(-c2nc3cc(C(C)C)ccc3o2)cc1NC(=O)c1cccs1,"inconclusive: 0.282 µM [inhibitor, full curve, poor fit]",–

Compound,Potency,"activity change, negative = inhibition"
C[C@H](O)[C@@H]1CN2CCc3c([nH]c4ccccc34)[C@@H]2C[C@@H]1N(C)Cc1cc(Cl)cc(Cl)c1,"inconclusive: 17.8 µM [inhibitor, partial curve]",–
CSc1cccc(NC(=O)CCNC(=O)c2ccco2)c1,"inconclusive: 4.47 µM [inhibitor, full curve]",–
CCOC(=O)c1c(NC(=O)C2=C(C)NC(=S)NC2c2ccc(F)cc2F)sc(C)c1C (centres undefined),–,inactive: -27.9%
Cc1ccc(NC(=O)CSc2nccn(-c3ccc4c(c3)OCCO4)c2=O)cc1,–,inactive: -2.97%
O=C(Nc1ccc(NC(=O)C2CC2)cc1)c1cccs1,–,inactive: -8.74%
CN(C)CCCN(C(=O)CCS(=O)(=O)c1ccccc1)c1nc2cc3c(cc2s1)OCO3,–,inactive: -7.04%
COC(=O)c1cccc(Nc2c(-c3ccc(O)c(OC)c3)nc3nc[nH]n23)c1,"inconclusive: 0.251 µM [inhibitor, full curve, poor fit]",–
CC(C)CN1CCc2nc(N3CCN(c4ncccn4)CC3)ncc2C1,"inconclusive: 39.8 µM [inhibitor, partial curve, poor fit]",–
Cc1onc(-c2c(F)cccc2Cl)c1C(=O)N1CCc2ccccc2C1,"inconclusive: 44.7 µM [inhibitor, partial curve]",–
CCOc1ccc(-c2nnc(SCC(=O)NCCC(C)C)nc2-c2ccc(OCC)c(OC)c2)cc1OC,"inconclusive: 17.8 µM [inhibitor, partial curve]",–
CN(C(=O)c1ccc(NC(=O)Cc2cccc(NC(=O)C3CCCN(S(=O)(=O)c4cccc([N+](=O)[O-])c4)C3)c2)cc1)C1CC1 (centres undefined),"inconclusive: 44.7 µM [inhibitor, partial curve, poor fit]",–
COc1ccc(-c2oc3ncnc(NCCCN(C)C)c3c2-c2ccc(OC)cc2)cc1,–,inactive: -12.4%
Cc1cc(C(=O)NCC(=O)O)c(C)o1,"inconclusive: 0.251 µM [inhibitor, full curve, poor fit]",–
CCc1ccc2oc(-c3cc(N)ccc3O)nc2c1,–,inactive: -4.02%
COc1ccccc1CNc1ncnc2c1cnn2-c1ccccc1,"inconclusive: 39.8 µM [inhibitor, single point]",–
COc1ccccc1C(=O)OCc1c(-c2ccccc2)ncc2ccccc12,"inconclusive: 15.8 µM [inhibitor, partial curve]",–
Cc1c(N2C(=O)/C(=C/c3ccc(N(C)C)cc3)N(C)C2=S)c(=O)n(-c2ccccc2)n1C,"inconclusive: 14.1 µM [inhibitor, partial curve]",–
O=C1/C(=C/c2ccc(O)cc2)SC(=S)N1Cc1cccnc1,"inconclusive: 3.16 µM [inhibitor, single point]",–
OCc1ccc(-c2nn(Cc3ccccc3)c3ccccc23)o1,"inconclusive: 11.2 µM [inhibitor, partial curve, poor fit]",–
O=C(O)c1cocc1C(=O)O,"inconclusive: 5.01 µM [inhibitor, partial curve, poor fit]",–
COc1c(C)cccc1C(=O)NC(=S)Nc1ccccc1N1CCCC1,"inconclusive: 39.8 µM [inhibitor, partial curve]",–
c1ccc(OC2CCCCC2N2CCOCC2)cc1 (centres undefined),"inconclusive: 4.47 µM [inhibitor, partial curve]",–

# Copied from the list.
# CSc1cccc(NC(=O)CCNC(=O)c2ccco2)c1 | Potency: inconclusive: 4.47 µM [inhibitor, full curve]
# CC(C)CN1CCc2nc(N3CCN(c4ncccn4)CC3)ncc2C1 | Potency: inconclusive: 39.8 µM [inhibitor, partial curve, poor fit]
# Cc1cccc(N=Cc2[nH]c3ccc(Br)c(Cl)c3c2O)c1 | Potency: inconclusive: 39.8 µM [inhibitor, partial curve]

# (next part)

Compound,Potency,"activity change, negative = inhibition"
Cc1c(C(=O)NCc2ccccc2F)oc2ccccc12,–,inactive: -23.1%
Cc1cc(N2CCCCC2)nc2ccc(NC(=O)/C=C/c3ccccc3OC(C)C)cc12,"inconclusive: 0.562 µM [inhibitor, full curve, poor fit]",–
CN(c1ccccc1)S(=O)(=O)c1ccc(C(=O)NCCc2ccc(F)cc2)cc1,"inconclusive: 35.5 µM [inhibitor, single point]",–
S=C1SC2(CCCCCC2)NC2=C1CCCCC2,"inconclusive: 79.4 µM [inhibitor, partial curve, poor fit]",–
CN(C)c1ccc(C=c2c3cc([N+](=O)[O-])ccc3n3c2cc(-c2ccccc2)[n+]3C)cc1,"inconclusive: 25.1 µM [inhibitor, partial curve]",–
CCCN(CCC)CCCNC(=O)C1CCCN(S(=O)(=O)c2cccc3nsnc23)C1 (centres undefined),"inconclusive: 14.1 µM [inhibitor, partial curve, poor fit]",–
COC(C[C@H]1O[C@@H]1[C@@H](O)[C@H](C)OCc1ccccc1)OC,"inconclusive: 50.1 µM [inhibitor, partial curve, poor fit]",–
O=C(O)C1CCN(C(=O)c2ccccc2Cl)CC1,–,inactive: -14.8%
CC(=O)c1cccc(NC(=O)C2CCCN(c3nnc(-n4cccc4)s3)C2)c1 (centres undefined),–,inactive: -22.2%
Cn1sccc1=O,"inconclusive: 28.2 µM [inhibitor, single point]",–
Cc1ccc(C(=O)COC(=O)C(CC(C)C)NC(=O)C2CCC(C)CC2)cc1 (centres undefined),–,inactive: -13.5%
CCC(=O)N1CCc2cc(Br)cc(S(=O)(=O)N3CCCC(C(=O)Nc4cccc(Cl)c4C)C3)c21 (centres undefined),–,inactive: -26.3%
CCOc1ccc(CC(=O)Nc2c(C(=O)c3ccc(C)cc3)oc3ccccc23)cc1OCC,"inconclusive: 5.01 µM [inhibitor, partial curve]",–
O=C(NN1CCOCC1)c1cccc2ccccc12,–,inactive: -16.4%
CC(Oc1ccccc1)C(=O)Nc1oc(-c2ccco2)c(-c2ccco2)c1C#N (centres undefined),"inconclusive: 3.55 µM [inhibitor, full curve, poor fit]",–
COc1cccc(C(=O)Nc2cc(-c3ccccc3)no2)c1,"inconclusive: 3.98 µM [inhibitor, partial curve]",–
CCOc1ccccc1N(CC(=O)N1CCN(Cc2ccccc2)CC1)S(=O)(=O)c1ccccc1,"inconclusive: 5.62 µM [inhibitor, partial curve, poor fit]",–
Nc1ccccc1SC(C[N+](=O)[O-])c1ccccc1 (centres undefined),"inconclusive: 28.2 µM [inhibitor, partial curve]",–
Cc1ccc(C2=C(c3ccc([N+](=O)[O-])cc3)C(=O)OC2)cc1C,–,inactive: -14.3%
O=C(O)C1=C[C@H](c2ccc(Br)cc2)C[C@H](OCc2ccc(CO)cc2)O1,"inconclusive: 44.7 µM [inhibitor, partial curve, poor fit]",–
